In article PMC7819943, “Rice protein-binding microarrays: a tool to detect cis-acting elements near promoter regions in rice”:
The other results are listed elsewhere or left out.

The sequences below were run against T1, OsSMF1 (Oryza sativa, UniProt Q6ZLB0 1-436) (assay: protein-binding microarray (RPBM); PBS, 2% BSA, 51.3 ng/ul salmon testes DNA, 50 uM zinc acetate, 200 nM TF, 25 C, 1 h; high values mean tight binding). Settings: protein: recombinant; tags: N-terminal polyhistidine and DsRed monomer fusion (pET32a); chain copies: 2; label: CyDye5-dUTP incorporated in the synthesized complementary strand; 3' TTTTT single-stranded linker to array surface; dsDNA, one strand shown.
T1 sequence: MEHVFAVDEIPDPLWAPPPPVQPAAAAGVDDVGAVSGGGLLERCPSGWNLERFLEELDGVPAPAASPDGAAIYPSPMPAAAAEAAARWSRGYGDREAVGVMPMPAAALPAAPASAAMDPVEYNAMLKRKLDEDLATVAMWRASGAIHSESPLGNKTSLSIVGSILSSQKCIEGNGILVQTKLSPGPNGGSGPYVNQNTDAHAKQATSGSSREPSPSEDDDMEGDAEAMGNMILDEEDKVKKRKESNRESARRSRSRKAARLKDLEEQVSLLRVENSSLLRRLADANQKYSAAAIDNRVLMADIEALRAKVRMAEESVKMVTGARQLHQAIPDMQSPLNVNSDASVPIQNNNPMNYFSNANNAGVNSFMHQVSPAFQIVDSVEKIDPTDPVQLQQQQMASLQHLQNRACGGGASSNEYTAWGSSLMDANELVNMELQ
Procedure, shortened: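 The binding signal is fluorescence intensity per feature, in arbitrary units, read on an Axon 4000B scanner. Polyhistidine- and DsRed-tagged transcription factors (N-terminal fusions) from E. coli BL21-CodonPlus were purified on Ni–NTA and applied at 200 nM for 1 h at 25 °C to a double-stranded, BSA-blocked custom Agilent array in buffer with 50 µM zinc acetate.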
For “CCAGAACGCGCCACGTAGCGCATCGAAGAGATCCAGCATCCGGAGTCACCTAGTGCAG”, the binding signal was 4780 fluorescence intensity (a.u.). For “AAGGCGAGGCGCCCTGACGCCTTTTCCCGCGATCTGATCTCGGAGTCACCTAGTGCAG”, the binding signal was 4930 fluorescence intensity (a.u.). With “ATTCACTGATAATAGAGACCCACACGTTAGTATTGGAGTACGGAGTCACCTAGTGCAG” the binding signal was 3140 fluorescence intensity (a.u.). “TCAAGATCCAACAGCTTGTCTCGTGCTCGTCACAGCTTCTCGGAGTCACCTAGTGCAG” was tested, and the binding signal was 3230 fluorescence intensity (a.u.). In the case of “CAGGGCCATGTTCGCTGATACATTGTGTTGGATTGCACTGCGGAGTCACCTAGTGCAG”, the binding signal is reported as 3470 fluorescence intensity (a.u.). For “CCGCGACGCCCCAGCAACACATCGCTACCATGCCATCGCCCGGAGTCACCTAGTGCAG”, the binding signal was 3270 fluorescence intensity (a.u.). With “GCCACACCCACACTGACACACATATACAAGCCAGAGAGATCGGAGTCACCTAGTGCAG” the binding signal was 3280 fluorescence intensity (a.u.). For “CCCGTCCAGCATTTTGTGTCTTGTCATCCTCGCCACCTCACGGAGTCACCTAGTGCAG”, the binding signal was 7020 fluorescence intensity (a.u.). “TTGTACTGTAACAGCTTGGTTTGATGTGCATGGCTTACTGCGGAGTCACCTAGTGCAG” was tested, and the binding signal was 3300 fluorescence intensity (a.u.). With “AAGATGGGCTTTGGGCCTTCGATAACCTATGCCATGTCAGCGGAGTCACCTAGTGCAG” the binding signal was 8510 fluorescence intensity (a.u.). “GCCATGAACGTCTCATTGTGAATGTGTCATCGAGGAGAAGCGGAGTCACCTAGTGCAG” was tested, and the binding signal was 5310 fluorescence intensity (a.u.). For “CAAGAAATTTCCACGGGGAAAACGACGCCTAATCACCGTGCGGAGTCACCTAGTGCAG”, the binding signal was 3240 fluorescence intensity (a.u.). For “GGCGGCCAGAAGAGCGCGCCGCCGCGGAGCACGACGGGGACGGAGTCACCTAGTGCAG”, the binding signal was 3270 fluorescence intensity (a.u.). For “TACACCATGTCCTAAAATTCCCGTCTGACTTTGGTTGGGACGGAGTCACCTAGTGCAG”, the binding signal was 20700 fluorescence intensity (a.u.). For “CGGCGCTCGTCGCCTCGCCGCGGCGTCGTCACTGTTCCGGCGGAGTCACCTAGTGCAG”, the binding signal was 4040 fluorescence intensity (a.u.). “AAAGGAAAGGACGAAACCACCTCACCTCATCTCATGGCGTCGGAGTCACCTAGTGCAG” was tested, and the binding signal was 3230 fluorescence intensity (a.u.). With “ACGAATTTATTAAGCCTAATTAATCCGTTATTAGCAAATGCGGAGTCACCTAGTGCAG” the binding signal was 6210 fluorescence intensity (a.u.). For “CCAACGAATCCAACCAAATTCGCTGTTCTTGCCTTCTTCTCGGAGTCACCTAGTGCAG”, the binding signal was 3340 fluorescence intensity (a.u.). For “GAGGTGTACCACTAAGTGTGTACGTGTATAGTGGGGCGTGCGGAGTCACCTAGTGCAG”, the binding signal was 7420 fluorescence intensity (a.u.). In the case of “GGCCGCGCTCGAGACCAGTCCACGGTGTCGTCCACCGCCCCGGAGTCACCTAGTGCAG”, the binding signal is reported as 4480 fluorescence intensity (a.u.). With “AAAGCCTCGCCGCCATCTCTCTCCACCACCCAAAATTTCTCGGAGTCACCTAGTGCAG” the binding signal was 35600 fluorescence intensity (a.u.). For “CATTGGGGCGTGAAAGCGTCGTCAGAAATTCATCGGGGCTCGGAGTCACCTAGTGCAG”, the binding signal was 3140 fluorescence intensity (a.u.). In the case of “TCTACCTCCGCCGCACGTGCCGCATCTTCCGCCGCCTCTGCGGAGTCACCTAGTGCAG”, the binding signal is reported as 3330 fluorescence intensity (a.u.). “TTTGTGTGTGTGGTTATGGTTCTTCGCCTATTCATCAACCCGGAGTCACCTAGTGCAG” was tested, and the binding signal was 3320 fluorescence intensity (a.u.). For “CATTCATACTGATGCTAATGAATCTCGACATATGTATCTACGGAGTCACCTAGTGCAG”, the binding signal was 22500 fluorescence intensity (a.u.). With “GCCGATGCATGCTCACACGATACATACTTTTCATTTCACCCGGAGTCACCTAGTGCAG” the binding signal was 21100 fluorescence intensity (a.u.). “TAAGTGGCAGGTTGAATGATGTCGTCCCCATCCACCACCACGGAGTCACCTAGTGCAG” was tested, and the binding signal was 3260 fluorescence intensity (a.u.). With “GTCGGCTTGCGTGGTAGCGTGACCTGGCAAACAGAGAGCACGGAGTCACCTAGTGCAG” the binding signal was 6280 fluorescence intensity (a.u.). With “ATGGAAAACCGTAGAGTACGAAGAGAACAGATGAATGCGACGGAGTCACCTAGTGCAG” the binding signal was 26100 fluorescence intensity (a.u.). In the case of “CGTGCTTATTCAAATCTACGGTGAGAGCTAACACTACGTGCGGAGTCACCTAGTGCAG”, the binding signal is reported as 23400 fluorescence intensity (a.u.). With “ACATCGTCGTCGTCAAGCTGCAGGTTTCTGAACAAGAGATCGGAGTCACCTAGTGCAG” the binding signal was 3260 fluorescence intensity (a.u.). “CGAGCCGACGGATGTTGGCGTGGTGGTGGTGACGAGGATGCGGAGTCACCTAGTGCAG” was tested, and the binding signal was 4900 fluorescence intensity (a.u.). In the case of “TTTCTTGGTGCGTGGTTACTTTCTTAGGGATGACAGGTGGCGGAGTCACCTAGTGCAG”, the binding signal is reported as 5290 fluorescence intensity (a.u.). “CGGGCCCACATGTCAGCCTCACTCAGCATCGGGTCCCGCACGGAGTCACCTAGTGCAG” was tested, and the binding signal was 4300 fluorescence intensity (a.u.). “TTAGACAAGTTATAAAACTTTCTTTCACACGATACTATCCCGGAGTCACCTAGTGCAG” was tested, and the binding signal was 3240 fluorescence intensity (a.u.). With “GTCAAGTGCGATGGAACTGATCGATCTTGGGTTGATTCTCCGGAGTCACCTAGTGCAG” the binding signal was 3490 fluorescence intensity (a.u.). With “TTCCTCCTCCCCGTCGTGCTCGCCGCCCACGACTCCTCCTCGGAGTCACCTAGTGCAG” the binding signal was 3150 fluorescence intensity (a.u.). For “TGGGGTGTGTCAAGCAGTAAGGCATAGAGATGACGATGACCGGAGTCACCTAGTGCAG”, the binding signal was 4030 fluorescence intensity (a.u.). “CTTGCATGCAGCGGTTTGAATGAAATGACCATTCTACCCTCGGAGTCACCTAGTGCAG” was tested, and the binding signal was 37800 fluorescence intensity (a.u.). “TTGCCGCATCAGAGACAGGTGTCAGCGGAGGTGGTGGTTGCGGAGTCACCTAGTGCAG” was tested, and the binding signal was 3740 fluorescence intensity (a.u.). “CATAATCGTCGTAGTAGATCCCATCAAACGTAACGTGTGTCGGAGTCACCTAGTGCAG” was tested, and the binding signal was 3380 fluorescence intensity (a.u.). “GCGCCACTCTCGCTGACTCGCTCGCTGCCAAGCTCGCCGGCGGAGTCACCTAGTGCAG” was tested, and the binding signal was 3700 fluorescence intensity (a.u.).
